PubChem BioAssay AID651640 (Broad Institute, 2012)
Among all 350,000 compounds or so, about 6,000 (1.7%) were called active. Inconclusive means that the source gave no clear call. Such entries were picked first, then a sample of the others. Rule as the data show it: active = CPE inhibition above about 20% (passing the limit was not always enough); inconclusive = no clear call, values can overlap the other calls; tested in BHK-21 cells.

test: protection of cells from dengue 2 killing – plate reader, single concentration, primary screen (AID 651640); settings: DENV2-infected cells, cytopathic effect rescue, at 9.99 µM, active compounds read high;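 also: 0% = median of neutral control wells and 100% = median of positive control wells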

Row | SMILES | CPE inhibition
1 | COc1cc(CN2CCCC(N3CCN(c4ccc(F)cc4)CC3)C2)ccc1F (stereo not given) | inconclusive: 37.7%
2 | CCCNC(=O)NC[C@H]1[C@H](c2ccc(C3=CCCCC3)cc2)[C@@H](CO)N1C(C)=O | active: 21.6%
3 | Cc1noc(C)c1S(=O)(=O)Nc1ccc2c(c1)C(=O)N([C@@H](C)CO)C[C@H](C)[C@@H](CN(C)C(=O)Nc1ccccc1)O2 | active: 21.3%
4 | CCN1CCN(c2ccc(NC(=O)c3cc4ccccc4cc3OC)cc2C)CC1 | inconclusive: 85.4%
5 | CC(C)CCn1c(SCC(=O)NC2CCS(=O)(=O)C2)nc2cc(Cl)ccc2c1=O (stereo not given) | inconclusive: 40.1%
6 | COc1cccc(S(=O)(=O)Nc2ccc3c(c2)[C@H]2C[C@@H](CC(=O)N[C@@H](C)c4ccccc4)O[C@H](CO)[C@H]2O3)c1 | inconclusive: 21.7%
7 | CC(=O)N1Cc2cc(C(=O)NCC(F)(F)F)nc(-c3cccc(-c4cncnc4)c3)c2[C@@H]1CCO | active: 20.7%
8 | COCc1nnc(NC(=O)c2ccc(S(=O)(=O)N3CCCc4ccccc43)cc2)o1 | inactive: 6.76%
9 | S=C(SCc1nc(-c2ccc(Cl)cc2)no1)N1CCSCC1 | inconclusive: 61.3%
10 | C[C@H](CO)N1C[C@H](C)[C@H](CN(C)C(=O)Nc2cccc3ccccc23)OCCCC[C@H](C)Oc2ccc(NC(=O)C3CCCCC3)cc2C1=O | inconclusive: 30.6%
11 | COc1ccc(C2=CC(=O)C[C@H](CN3C(=O)c4ccccc4C3=O)N(C(=O)OC(C)(C)C)O2)cc1 | inactive: -12.8%
12 | O=C(NCc1ccco1)C1CCCN1C(=O)Nc1ccccc1 (stereo not given) | inconclusive: 33%
13 | Cc1cc(OCC(=O)N(C)Cc2ccccc2)ccc1Cl | inactive: -4.09%
14 | CCOC(=O)C1CCCCN1C(=O)/C(=C/c1ccc(OC)cc1)c1ccc(OC)c(OC)c1 (stereo not given) | inconclusive: 43.2%
15 | Cc1ccc(S(=O)(=O)N(C)C)cc1NC(=O)c1ccc(OC(F)(F)F)cc1 | inconclusive: 50.2%
16 | C[C@@H]1CN([C@@H](C)CO)C(=O)c2cc(NC(=O)C3CCCCC3)ccc2O[C@@H](C)CCCCO[C@H]1CN(C)CC1CCCCC1 | inactive: -6.67%
17 | CO[C@H]1CN(C)C(=O)c2ccc(NC(C)=O)cc2OC[C@H](C)N(C(=O)C2CCCCC2)C[C@@H]1C | inactive: 8.91%
18 | CC1=C2[C@@H](c3ccccc3)OB(O)C[C@@H]2[C@@H]2C(=O)N(Cc3ccccc3)C(=O)[C@@H]2C1 | inactive: -6.52%

Row | SMILES | CPE inhibition
19 | NCCc1ccc(O)c(O)c1 | inconclusive: 37.7%
20 | COc1ccc(OC)c(NC(=O)c2ccc(N3C(=O)C4CC=C(C)CC4C3=O)cc2)c1 (stereo not given) | inconclusive: 44.1%
21 | Nc1c(NC=O)c(=O)n(Cc2ccccc2)c(=O)n1Cc1ccccc1 | inconclusive: 24.8%
22 | Cc1nc(C(F)(F)F)ccc1C(=O)N1CCC1(C)C(=O)NCc1cccs1 (stereo not given) | inconclusive: 30.9%
23 | O=C(c1cccs1)N1CCC(C(=O)N2CCN(Cc3ccc4c(c3)OCO4)CC2)CC1 | inconclusive: 21%
24 | CN1C(=O)c2cc(NC(=O)C3CC3)ccc2OC[C@@H]2O[C@H](CC(=O)NCCN3CCCC3)CC[C@H]21 | inconclusive: 49.4%
25 | COCC#Cc1ccc2c(c1)O[C@@H](CN(C)S(=O)(=O)c1cccc(F)c1)[C@H](C)CN([C@@H](C)CO)S2(=O)=O | inactive: -0.207%
26 | CCCNC(=O)C[C@@H]1C[C@@H]2c3cc(NC(=O)Cc4ccncc4)ccc3O[C@@H]2[C@H](CO)O1 | inactive: 3.24%
27 | O=C(NC1CCCC1)c1nc(-c2c(F)cccc2F)oc1-c1ccccc1 | active: 21.7%
28 | COc1ccc2c3c(n(C)c2c1)[C@H](CO)NCC31CN(S(=O)(=O)c2ccccc2)C1 | inconclusive: 44.9%
29 | COc1ccc(-c2cc(-c3ccccc3)c(-c3ccccc3)nn2)cc1 | inconclusive: 44.9%
30 | CCC(=O)Nc1ccc2c(c1)C(=O)N(C)C[C@@H](OC)[C@H](C)CN(C(C)=O)[C@@H](C)CO2 | active: 28.8%
31 | COc1ccc(S(=O)(=O)N(C)C[C@@H]2OCCCC[C@H](C)Oc3ccc(NC(=O)NC(C)C)cc3C(=O)N([C@@H](C)CO)C[C@H]2C)cc1 | active: 49.2%
32 | CC(=O)Nc1ccc(NC(=O)C2CC(=O)N(C(C)C)C2)cc1 (stereo not given) | inconclusive: 34.9%
33 | C[C@@H]1CN([C@@H](C)CO)C(=O)c2cccc(NC(=O)c3ccc(-c4nccs4)cc3)c2O[C@H]1CN(C)C(=O)Nc1ccc(C(F)(F)F)cc1 | inconclusive: 27.9%
34 | C[C@H](CO)N1C[C@H](C)[C@H](CN(C)C(=O)C2CCC2)Oc2ncc(C3=CCCC3)cc2C1=O | active: 29.7%
35 | COC(=O)C1=CO[C@@H](O[C@@H]2O[C@H](CO)[C@@H](O)[C@H](O)[C@H]2O)C2C1CC(O)O[C@H]2C (stereo not given in full) | active: 23.1%

Two records drawn at random from the list so far, as already listed:
Row | SMILES | CPE inhibition
28 | COc1ccc2c3c(n(C)c2c1)[C@H](CO)NCC31CN(S(=O)(=O)c2ccccc2)C1 | inconclusive: 44.9%
3 | Cc1noc(C)c1S(=O)(=O)Nc1ccc2c(c1)C(=O)N([C@@H](C)CO)C[C@H](C)[C@@H](CN(C)C(=O)Nc1ccccc1)O2 | active: 21.3%
